Assay results taken from the supplement of paper PMC10849652.
Some of the results follow.

Chains of the proteins cited; added tags and fusions are not shown. Lines headed by an entry give the natural chain unless they say otherwise; changes in a name come on top.
UniProt Q96GD4, whole entry, looked up: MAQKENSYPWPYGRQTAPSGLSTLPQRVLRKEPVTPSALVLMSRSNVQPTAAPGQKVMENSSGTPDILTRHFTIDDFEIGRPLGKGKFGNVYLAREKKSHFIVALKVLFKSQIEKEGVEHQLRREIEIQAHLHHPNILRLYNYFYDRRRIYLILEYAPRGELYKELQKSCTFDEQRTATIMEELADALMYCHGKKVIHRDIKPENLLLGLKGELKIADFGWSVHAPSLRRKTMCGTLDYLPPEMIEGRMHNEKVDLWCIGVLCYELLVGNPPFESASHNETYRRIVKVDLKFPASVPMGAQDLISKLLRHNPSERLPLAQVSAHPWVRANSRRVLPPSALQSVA
UniProt Q96L58: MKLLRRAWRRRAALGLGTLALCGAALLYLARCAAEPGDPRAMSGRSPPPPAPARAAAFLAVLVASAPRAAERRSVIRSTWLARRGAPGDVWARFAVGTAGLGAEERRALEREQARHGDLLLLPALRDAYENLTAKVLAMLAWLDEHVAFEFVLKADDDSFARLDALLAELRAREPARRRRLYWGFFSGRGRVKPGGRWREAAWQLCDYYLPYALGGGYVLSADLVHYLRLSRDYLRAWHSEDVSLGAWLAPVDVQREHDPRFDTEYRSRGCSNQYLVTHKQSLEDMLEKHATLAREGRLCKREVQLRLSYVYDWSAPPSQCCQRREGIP
UniProt P38398, whole entry, looked up: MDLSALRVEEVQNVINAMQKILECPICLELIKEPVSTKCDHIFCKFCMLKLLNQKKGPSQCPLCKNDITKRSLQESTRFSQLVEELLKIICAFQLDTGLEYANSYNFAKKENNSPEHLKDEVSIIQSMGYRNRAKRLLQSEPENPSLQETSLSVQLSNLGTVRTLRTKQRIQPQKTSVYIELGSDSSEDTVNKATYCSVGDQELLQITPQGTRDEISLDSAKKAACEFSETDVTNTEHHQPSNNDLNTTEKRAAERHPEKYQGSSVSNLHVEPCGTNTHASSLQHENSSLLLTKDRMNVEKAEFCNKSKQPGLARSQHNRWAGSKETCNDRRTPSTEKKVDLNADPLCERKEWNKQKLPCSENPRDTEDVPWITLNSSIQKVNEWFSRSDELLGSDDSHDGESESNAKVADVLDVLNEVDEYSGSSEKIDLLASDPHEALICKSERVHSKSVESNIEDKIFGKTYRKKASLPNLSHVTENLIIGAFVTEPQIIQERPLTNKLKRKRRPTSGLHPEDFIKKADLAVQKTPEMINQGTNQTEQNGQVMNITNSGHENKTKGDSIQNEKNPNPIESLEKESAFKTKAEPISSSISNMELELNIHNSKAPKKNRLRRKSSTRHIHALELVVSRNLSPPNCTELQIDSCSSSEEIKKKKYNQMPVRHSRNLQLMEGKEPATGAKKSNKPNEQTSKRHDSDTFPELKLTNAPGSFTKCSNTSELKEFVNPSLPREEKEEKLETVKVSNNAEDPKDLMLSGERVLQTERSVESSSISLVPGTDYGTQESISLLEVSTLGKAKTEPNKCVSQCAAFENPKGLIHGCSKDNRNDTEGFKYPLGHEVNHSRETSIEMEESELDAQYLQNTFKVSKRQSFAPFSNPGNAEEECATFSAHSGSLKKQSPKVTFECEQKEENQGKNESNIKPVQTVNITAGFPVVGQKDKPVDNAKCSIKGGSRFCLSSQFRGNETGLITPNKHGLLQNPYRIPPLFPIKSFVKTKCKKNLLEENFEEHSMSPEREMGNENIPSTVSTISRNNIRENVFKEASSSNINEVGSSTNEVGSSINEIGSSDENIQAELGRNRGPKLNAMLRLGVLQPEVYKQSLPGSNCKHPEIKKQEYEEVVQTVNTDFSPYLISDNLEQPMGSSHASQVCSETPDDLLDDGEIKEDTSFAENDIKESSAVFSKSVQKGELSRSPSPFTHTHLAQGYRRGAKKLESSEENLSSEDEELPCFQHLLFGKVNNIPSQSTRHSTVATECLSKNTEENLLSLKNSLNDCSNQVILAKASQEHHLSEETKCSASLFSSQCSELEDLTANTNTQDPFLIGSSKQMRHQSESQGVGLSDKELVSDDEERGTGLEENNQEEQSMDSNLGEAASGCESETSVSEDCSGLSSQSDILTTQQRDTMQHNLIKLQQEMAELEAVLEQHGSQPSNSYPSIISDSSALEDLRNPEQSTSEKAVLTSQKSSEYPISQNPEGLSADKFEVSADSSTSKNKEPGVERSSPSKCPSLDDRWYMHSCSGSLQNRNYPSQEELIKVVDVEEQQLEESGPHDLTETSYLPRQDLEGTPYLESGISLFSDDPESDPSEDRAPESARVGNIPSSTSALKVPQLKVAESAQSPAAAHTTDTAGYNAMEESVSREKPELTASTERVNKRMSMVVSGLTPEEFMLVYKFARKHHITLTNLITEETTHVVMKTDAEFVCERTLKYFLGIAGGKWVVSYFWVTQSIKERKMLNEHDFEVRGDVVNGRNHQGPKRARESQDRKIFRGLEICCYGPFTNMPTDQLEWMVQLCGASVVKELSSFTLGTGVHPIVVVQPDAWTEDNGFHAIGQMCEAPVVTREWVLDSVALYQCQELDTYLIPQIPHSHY
UniProt O43521, whole entry, looked up: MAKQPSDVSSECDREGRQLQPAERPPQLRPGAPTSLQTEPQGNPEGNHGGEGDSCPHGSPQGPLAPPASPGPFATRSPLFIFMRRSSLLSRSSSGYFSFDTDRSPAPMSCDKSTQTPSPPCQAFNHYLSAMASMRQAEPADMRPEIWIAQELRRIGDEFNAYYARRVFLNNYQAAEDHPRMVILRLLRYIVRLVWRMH
UniProt Q9NWD9: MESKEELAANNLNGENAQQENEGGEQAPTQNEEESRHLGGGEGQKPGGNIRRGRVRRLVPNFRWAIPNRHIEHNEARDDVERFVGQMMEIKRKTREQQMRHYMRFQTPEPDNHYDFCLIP
UniProt Q9NZS9: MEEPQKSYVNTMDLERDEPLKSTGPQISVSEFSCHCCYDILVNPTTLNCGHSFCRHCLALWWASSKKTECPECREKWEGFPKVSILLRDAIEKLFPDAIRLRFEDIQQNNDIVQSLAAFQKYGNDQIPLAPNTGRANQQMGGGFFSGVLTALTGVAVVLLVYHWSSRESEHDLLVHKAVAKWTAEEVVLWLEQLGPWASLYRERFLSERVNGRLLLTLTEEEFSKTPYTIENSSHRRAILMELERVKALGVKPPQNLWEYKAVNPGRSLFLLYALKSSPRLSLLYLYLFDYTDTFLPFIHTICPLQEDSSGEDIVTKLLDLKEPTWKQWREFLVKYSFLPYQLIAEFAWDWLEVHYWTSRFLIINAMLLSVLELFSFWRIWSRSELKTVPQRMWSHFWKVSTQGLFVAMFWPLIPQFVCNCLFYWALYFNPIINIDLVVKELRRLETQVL
UniProt Q9H6S1, whole entry, looked up: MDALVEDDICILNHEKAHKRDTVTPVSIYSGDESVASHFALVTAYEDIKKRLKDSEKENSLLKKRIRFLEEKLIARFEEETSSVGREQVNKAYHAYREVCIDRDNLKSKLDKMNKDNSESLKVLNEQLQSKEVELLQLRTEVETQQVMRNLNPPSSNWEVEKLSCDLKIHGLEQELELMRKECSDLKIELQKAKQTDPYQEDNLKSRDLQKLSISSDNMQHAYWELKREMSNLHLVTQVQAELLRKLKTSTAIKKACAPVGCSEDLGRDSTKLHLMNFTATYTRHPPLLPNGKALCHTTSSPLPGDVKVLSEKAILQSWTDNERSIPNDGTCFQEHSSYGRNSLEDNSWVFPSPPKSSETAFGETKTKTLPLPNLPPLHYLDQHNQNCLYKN
UniProt P25440, whole entry, looked up: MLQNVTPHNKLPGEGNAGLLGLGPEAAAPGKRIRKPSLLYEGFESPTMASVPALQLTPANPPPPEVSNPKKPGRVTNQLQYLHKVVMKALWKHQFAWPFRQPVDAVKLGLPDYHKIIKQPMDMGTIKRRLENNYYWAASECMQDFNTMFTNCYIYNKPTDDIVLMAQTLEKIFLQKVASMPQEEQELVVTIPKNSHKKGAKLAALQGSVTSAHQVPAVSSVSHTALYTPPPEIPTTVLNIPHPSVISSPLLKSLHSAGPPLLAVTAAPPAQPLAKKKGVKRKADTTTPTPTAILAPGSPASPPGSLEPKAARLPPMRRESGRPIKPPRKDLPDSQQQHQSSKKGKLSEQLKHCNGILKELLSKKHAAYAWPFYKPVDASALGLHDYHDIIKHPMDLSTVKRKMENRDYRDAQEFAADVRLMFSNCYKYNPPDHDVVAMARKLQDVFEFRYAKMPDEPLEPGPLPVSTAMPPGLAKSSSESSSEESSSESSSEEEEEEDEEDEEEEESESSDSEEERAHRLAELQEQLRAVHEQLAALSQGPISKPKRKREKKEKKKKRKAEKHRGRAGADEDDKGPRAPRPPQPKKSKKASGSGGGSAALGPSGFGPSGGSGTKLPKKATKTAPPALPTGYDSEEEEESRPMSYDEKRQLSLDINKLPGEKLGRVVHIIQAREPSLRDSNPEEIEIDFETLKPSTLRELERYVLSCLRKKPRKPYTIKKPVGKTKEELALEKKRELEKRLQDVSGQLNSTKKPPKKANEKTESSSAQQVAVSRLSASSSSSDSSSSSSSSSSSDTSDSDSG
UniProt Q9H7T9: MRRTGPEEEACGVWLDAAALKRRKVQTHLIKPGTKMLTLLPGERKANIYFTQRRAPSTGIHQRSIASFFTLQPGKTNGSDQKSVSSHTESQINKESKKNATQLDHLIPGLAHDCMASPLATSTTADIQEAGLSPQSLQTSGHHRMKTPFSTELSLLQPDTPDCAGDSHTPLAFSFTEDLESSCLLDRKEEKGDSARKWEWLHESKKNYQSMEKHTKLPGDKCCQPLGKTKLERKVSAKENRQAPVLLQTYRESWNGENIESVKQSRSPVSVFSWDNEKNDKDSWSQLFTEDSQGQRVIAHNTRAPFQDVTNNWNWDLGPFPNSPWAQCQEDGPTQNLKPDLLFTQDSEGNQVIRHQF
UniProt Q9BUT1: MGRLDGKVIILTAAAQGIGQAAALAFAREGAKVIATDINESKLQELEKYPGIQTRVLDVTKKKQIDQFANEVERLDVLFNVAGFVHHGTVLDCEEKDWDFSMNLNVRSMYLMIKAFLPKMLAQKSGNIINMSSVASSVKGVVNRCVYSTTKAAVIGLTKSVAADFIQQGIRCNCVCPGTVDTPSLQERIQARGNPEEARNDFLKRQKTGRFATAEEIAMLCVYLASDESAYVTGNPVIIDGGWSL
UniProt Q67FW5: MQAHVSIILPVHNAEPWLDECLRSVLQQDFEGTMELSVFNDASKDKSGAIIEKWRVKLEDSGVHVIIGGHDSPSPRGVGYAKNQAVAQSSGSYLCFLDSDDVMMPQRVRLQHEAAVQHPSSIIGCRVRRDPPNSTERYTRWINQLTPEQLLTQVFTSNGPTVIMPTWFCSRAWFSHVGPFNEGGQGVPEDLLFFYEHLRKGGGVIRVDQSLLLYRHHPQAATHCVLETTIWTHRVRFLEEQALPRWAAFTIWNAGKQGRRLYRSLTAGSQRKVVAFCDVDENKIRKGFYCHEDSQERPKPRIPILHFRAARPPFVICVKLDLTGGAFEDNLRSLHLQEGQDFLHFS
UniProt O60238, whole entry, looked up: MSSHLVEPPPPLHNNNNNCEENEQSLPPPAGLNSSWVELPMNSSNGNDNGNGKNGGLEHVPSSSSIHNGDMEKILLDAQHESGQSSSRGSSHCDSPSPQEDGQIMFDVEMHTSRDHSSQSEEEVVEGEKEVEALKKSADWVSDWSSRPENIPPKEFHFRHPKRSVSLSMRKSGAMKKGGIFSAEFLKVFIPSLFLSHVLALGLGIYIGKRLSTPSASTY
UniProt O60513: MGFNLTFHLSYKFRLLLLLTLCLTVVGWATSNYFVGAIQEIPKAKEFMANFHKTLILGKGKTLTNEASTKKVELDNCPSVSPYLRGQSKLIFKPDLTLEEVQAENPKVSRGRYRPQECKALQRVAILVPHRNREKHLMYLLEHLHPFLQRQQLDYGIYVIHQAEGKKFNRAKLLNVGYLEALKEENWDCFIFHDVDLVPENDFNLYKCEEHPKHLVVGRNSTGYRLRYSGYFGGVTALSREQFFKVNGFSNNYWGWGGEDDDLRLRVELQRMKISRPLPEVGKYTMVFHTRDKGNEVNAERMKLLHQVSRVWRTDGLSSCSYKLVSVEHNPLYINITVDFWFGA
UniProt Q9BYG0: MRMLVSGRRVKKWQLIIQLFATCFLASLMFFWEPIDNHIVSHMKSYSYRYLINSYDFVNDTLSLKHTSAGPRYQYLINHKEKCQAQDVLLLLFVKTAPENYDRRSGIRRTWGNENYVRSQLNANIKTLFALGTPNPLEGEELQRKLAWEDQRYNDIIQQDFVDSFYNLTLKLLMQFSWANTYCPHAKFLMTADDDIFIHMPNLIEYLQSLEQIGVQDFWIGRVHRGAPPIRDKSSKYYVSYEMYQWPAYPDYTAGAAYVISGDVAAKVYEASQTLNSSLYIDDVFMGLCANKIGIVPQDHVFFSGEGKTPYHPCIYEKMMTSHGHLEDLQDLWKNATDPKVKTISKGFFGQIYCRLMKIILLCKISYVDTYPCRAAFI
UniProt O95415: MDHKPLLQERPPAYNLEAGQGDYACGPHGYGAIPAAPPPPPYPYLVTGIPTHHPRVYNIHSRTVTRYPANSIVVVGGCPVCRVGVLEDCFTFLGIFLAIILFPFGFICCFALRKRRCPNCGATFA

Columns and labels:
Test in all cases: log2 fold change, soluble protein after heating vs DMSO (PISA); higher = thermal stabilisation; K562 cells, 10 uM, 30 min; active = over 0.2 and 3.5 SD of the protein, either way, in both replicates (recomputed)
[1] = compound: CCn1c(C(=O)N(C2CC2)C2CC2)cc2c3c(ncn3C)c(Nc3cc(C)n(C)n3)nc21
In short: (§1)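 K562 cells at 2×10^6 cells/mL were treated with 10 μM compound for 30 min. Aliquots were heated for 3 min across 48°C-58°C, pooled, and extracted in PBS with 0.5% NP-40 at 4°C; soluble protein was the supernatant after 21,000xg for 90 min. Soluble protein was quantified by TMTpro 16plex LC-MS/MS with channel sums equalised, and reported as log2 fold change in thermal stability against DMSO controls, with values from duplicates.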

[2] = compound: CCn1cc(-c2ccnc3[nH]c(-c4cccc(CN(C)C)c4)cc23)c(-c2ccc(NC(=O)N(C)C)cc2)n1
In short: as §1

[3] = compound: CN1CCC(CNc2ccc3ncc(-c4cccc(OC(F)(F)F)c4)n3n2)CC1
In short: as §1

[4] = compound: CC[C@H](C)[C@@H](C(=O)N[C@@H]([C@@H](C)O)C(=O)N[C@@H](CC(C)C)C(=O)[C@]1(CO1)C)NC(=O)[C@H]([C@@H](C)CC)N(C)C(=O)C [epoxomicin]
In short: as §1

[5] = compound: CN(CCOC1=CC=C(C=C1)C[C@H]2C(=O)NC(=O)S2)C3=CC=CC=N3 (racemic) [rosiglitazone]
In short: as §1

[6] = compound: CN(C)CC(=O)Nc1ccc2[nH]c(=O)c3ccccc3c2c1
In short: as §1

[7] = compound: CN1C2=C(C3=C1C(=O)N(N=C3)CC4=CC(=CC=C4)N)SC(=C2)S(=O)C
In short: as §1

[8] = compound: CC[C@@H]1C(=O)N(C)c2cnc(Nc3ccc(C(=O)NC4CCN(C)CC4)cc3OC)nc2N1C1CCCC1
In short: as §1

[9] = compound: CC[C@H](C)N1C=C(C2=C(C=C(C=C21)C3=CN=C(C=C3)N4CCNCC4)C(=O)NCC5=C(C=C(NC5=O)C)C)C
In short: as §1

[10] = compound: CC[C@@H]1C(=O)N(C)c2cnc(Nc3ccc(C(=O)N[C@H]4CC[C@H](N5CCN(CC6CC6)CC5)CC4)cc3OC)nc2N1C(C)C [volasertib]
In short: as §1

Measured: log2 fold change

BOD1 (UniProt Q96IK1)
inactive: [1] 0.042 | [2] 0.116 | [3] 0.086

BORA (UniProt Q6PGQ7)
inactive: [4] -0.015 | [5] -0.332

BCOR (UniProt Q6W2J9)
inactive: [4] -0.225 | [1] 0.079 | [6] -0.159 | [5] 0.035 | [7] -0.08

BPNT1 (UniProt A6NF51)
inactive: [8] 0.01 | [4] 0.105 | [1] 0.238 | [6] 0.036 | [5] 0.162

AURKB isoform 5 (UniProt Q96GD4)
inactive: [8] 0.156 | [9] -0.095 | [6] -0.281 | [7] 0.353

Pulled one by one from the entries so far (three):
BORA (UniProt Q6PGQ7)
inactive: [4] -0.015 | [5] -0.332

BPNT1 (UniProt A6NF51)
inactive: [8] 0.01 | [4] 0.105 | [1] 0.238 | [6] 0.036 | [5] 0.162

BCOR (UniProt Q6W2J9)
inactive: [4] -0.225 | [1] 0.079 | [6] -0.159 | [5] 0.035 | [7] -0.08

(cont.)

BLVRA (UniProt C9J1E1)
inactive: [10] -0.028 | [9] 0.226 | [1] -0.041 | [2] 0.015 | [6] -0.186 | [5] 0.124 | [7] 0.081 | [3] -0.001

BRMS1 (UniProt Q9HCU9)
inactive: [8] -0.034 | [4] -0.018 | [2] 0.144 | [7] -0.092 | [3] -0.124

BNIP2 (UniProt H7C096)
inactive: [8] -0.085 | [1] -0.048 | [5] -0.044

BCL7C isoform 2 (UniProt Q8WUZ0)
inactive: [9] -0.113 | [4] -0.015 | [1] -0.282 | [5] -0.037

B3GALT6 (UniProt Q96L58)
inactive: [1] -0.072

ATXN7L2 (UniProt Q5T6C5)
inactive: [4] -0.197

BRAF, A0A2R8Y8E0
inactive: [9] 0.047

BCS1L, A0A2R8Y7T3
inactive: [5] 0.094

BPTF (UniProt Q12830)
inactive: [9] 0 | [4] -0.38 | [1] -0.351 | [7] 0.096

BMP1 (UniProt P13497)
inactive: [1] -0.04 | [5] 0.294

BRCA1 isoform 7 (UniProt P38398)
inactive: [10] -0.063 | [1] -0.234 | [6] -0.171

BHMT (UniProt Q93088)
inactive: [7] 0.47

BCL2L11 (UniProt O43521)
inactive: [8] -0.111 | [9] -0.183 | [4] -0.102 | [1] 0.014 | [2] -0.174 | [6] -0.024 | [7] -0.063 | [3] -0.086

BEX4 (UniProt Q9NWD9)
inactive: [8] 0.146 | [1] -0.062 | [5] 0.125 | [7] -0.005

BCDIN3D (UniProt Q7Z5W3)
inactive: [8] -0.03 | [5] -0.007

BAP18 isoform 3 (UniProt Q8IXM2)
inactive: [2] 0.028 | [3] 0.2

BFAR (UniProt Q9NZS9)
inactive: [10] -0.054 | [4] 0.009 | [6] -0.047

AZI2 (UniProt Q9H6S1)
inactive: [8] -0.021 | [9] -0.063 | [6] 0.062

BRD2 isoform 2 (UniProt P25440)
active: [10] 1.76
inactive: [2] 0.486 | [6] 0.115 | [7] -0.132 | [3] 0.129

ATXN2 (UniProt F8W0B5)
inactive: [8] -0.008 | [9] -0.082 | [1] 0.016 | [2] 0.325 | [7] 0.126 | [3] -0.302

AUNIP isoform 2 (UniProt Q9H7T9)
inactive: [10] -0.03 | [6] -0.163 | [7] -0.031

BIN1 (UniProt O00499)
inactive: [6] -0.131

BDH2 (UniProt Q9BUT1)
inactive: [10] -0.126 | [2] 0.005 | [6] 0.367 | [7] -0.028 | [3] -0.033

BSCL2 isoform 4 (UniProt Q96G97)
inactive: [10] 0.072 | [9] 0.093 | [4] -0.05 | [2] 0 | [6] -0.006 | [7] -0.005 | [3] -0.057

AURKAIP1 (UniProt Q9NWT8)
inactive: [8] 0.182 | [4] -0.14 | [1] -0.047 | [6] -0.078 | [7] 0.271

BCL7B (UniProt Q9BQE9)
inactive: [6] -0.167 | [7] 0.085

B3GNTL1 (UniProt Q67FW5)
inactive: [10] -0.081 | [9] -0.067 | [4] 0.055 | [1] 0 | [2] -0.005 | [6] -0.076 | [5] 0.003 | [7] -0.027 | [3] -0.144

BNIP3L (UniProt O60238)
inactive: [8] -0.065 | [9] 0.045 | [1] -0.08 | [6] -0.173 | [7] 0.004

AXIN1 (UniProt O15169)
inactive: [2] -0.096 | [6] 0.005 | [3] -0.233

BPIFA1 (UniProt Q9NP55)
inactive: [8] -0.365 | [9] 0.787 | [5] -0.416

B4GALT4 (UniProt O60513)
inactive: [9] 0.104 | [2] 0.372 | [5] -0.037 | [3] -0.053

B3GNT5 (UniProt Q9BYG0)
inactive: [9] 0.119 | [4] -0.01 | [1] -0.034 | [6] 0.081 | [5] 0.058 | [7] -0.179

ATRX (UniProt P46100)
inactive: [2] 0.113 | [3] -0.016

BRI3 (UniProt O95415)
inactive: [5] 0.136

BAZ1B (UniProt Q9UIG0)
inactive: [8] -0.099 | [9] 0.094 | [2] 0.131 | [6] 0.013 | [3] -0.089
